Results published in the supplement of paper PMC7661543.
± gives the standard deviation of the averaged measurements. Differences between knockout arms are mostly noise.

System: MDA-MB-231
Assay: relative cell number vs DMSO control (72 h) (% of DMSO); higher = less growth inhibition (more cells)
Description: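 QMAP-Seq: a pool of 5 breast cancer cell lines (ZR-75-1, SKBR3, HCC-38, MDA-MB-231, BT-20), each carrying 12 doxycycline-inducible Cas9 sgRNA perturbations (11 knockouts plus non-targeting sgNT), was treated with compounds for 72 h at four 10-fold doses (10 nM-10 uM or 1 nM-1 uM range). Barcodes were amplified and sequenced, and cell number was interpolated from 293T spike-in standard curves. The result is expressed as % of the median of DMSO wells. Two biological replicates.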

N[C@@H](CC(=O)N1CCn2c(nnc2C(F)(F)F)C1)Cc1cc(F)c(F)cc1F [Sitagliptin]
Conditions	relative cell number
sgRNA knockout: sgATF3, 10 nM	137.34 ± 0.027
sgRNA knockout: sgATF3, 100 nM	119 ± 30
sgRNA knockout: sgATF3, 1000 nM	97.2 ± 25
sgRNA knockout: sgATF3, 10000 nM	109 ± 59
sgRNA knockout: sgATF4, 10 nM	113 ± 5.6
sgRNA knockout: sgATF4, 100 nM	102 ± 12
sgRNA knockout: sgATF4, 1000 nM	85.8 ± 21
sgRNA knockout: sgATF4, 10000 nM	152 ± 45
sgRNA knockout: sgATF6, 10 nM	98.5 ± 19
sgRNA knockout: sgATF6, 100 nM	112 ± 20
sgRNA knockout: sgATF6, 1000 nM	97.8 ± 23
sgRNA knockout: sgATF6, 10000 nM	127 ± 18
sgRNA knockout: sgATG7, 10 nM	107 ± 19
sgRNA knockout: sgATG7, 100 nM	96 ± 4.7
sgRNA knockout: sgATG7, 1000 nM	94.5 ± 6.9
sgRNA knockout: sgATG7, 10000 nM	100 ± 34
sgRNA knockout: sgERN1, 10 nM	95.4 ± 10
sgRNA knockout: sgERN1, 100 nM	137 ± 37
sgRNA knockout: sgERN1, 1000 nM	114 ± 7.6
sgRNA knockout: sgERN1, 10000 nM	108 ± 55
sgRNA knockout: sgHSF1, 10 nM	104 ± 48
sgRNA knockout: sgHSF1, 100 nM	97.9 ± 17
sgRNA knockout: sgHSF1, 1000 nM	102 ± 24
sgRNA knockout: sgHSF1, 10000 nM	91.1 ± 5.8
sgRNA knockout: sgHSF2, 10 nM	110 ± 9
sgRNA knockout: sgHSF2, 100 nM	101 ± 41
sgRNA knockout: sgHSF2, 1000 nM	106 ± 18
sgRNA knockout: sgHSF2, 10000 nM	93.2 ± 20
sgRNA knockout: sgKEAP1, 10 nM	118 ± 8.3
sgRNA knockout: sgKEAP1, 100 nM	130 ± 28
sgRNA knockout: sgKEAP1, 1000 nM	97.6 ± 23
sgRNA knockout: sgKEAP1, 10000 nM	93.522 ± 0.042
sgRNA knockout: sgNFE2L2, 10 nM	102 ± 1.4
sgRNA knockout: sgNFE2L2, 100 nM	94.6 ± 32
sgRNA knockout: sgNFE2L2, 1000 nM	109 ± 9.7
sgRNA knockout: sgNFE2L2, 10000 nM	105 ± 22
sgRNA knockout: sgSLC35F2, 10 nM	110 ± 57
sgRNA knockout: sgSLC35F2, 100 nM	106 ± 12
sgRNA knockout: sgSLC35F2, 1000 nM	129 ± 6.3
sgRNA knockout: sgSLC35F2, 10000 nM	90.7 ± 3.7
sgRNA knockout: sgXBP1, 10 nM	108 ± 32
sgRNA knockout: sgXBP1, 100 nM	134 ± 15
sgRNA knockout: sgXBP1, 1000 nM	123 ± 4.6
sgRNA knockout: sgXBP1, 10000 nM	94.1 ± 12

CNC(=O)c1cc(Oc2ccc(NC(=O)Nc3ccc(Cl)c(C(F)(F)F)c3)cc2)ccn1 [Sorafenib]
Conditions	relative cell number
sgRNA knockout: sgATF3, 10 nM	76.8 ± 8.2
sgRNA knockout: sgATF3, 100 nM	127 ± 44
sgRNA knockout: sgATF3, 1000 nM	95.1 ± 31
sgRNA knockout: sgATF3, 10000 nM	36.6 ± 6.3
sgRNA knockout: sgATF4, 10 nM	110 ± 33
sgRNA knockout: sgATF4, 100 nM	86.3 ± 18
sgRNA knockout: sgATF4, 1000 nM	79.5 ± 36
sgRNA knockout: sgATF4, 10000 nM	33.5 ± 9.5
sgRNA knockout: sgATF6, 10 nM	112 ± 30
sgRNA knockout: sgATF6, 100 nM	99.5 ± 6.8
sgRNA knockout: sgATF6, 1000 nM	103 ± 30
sgRNA knockout: sgATF6, 10000 nM	30 ± 1.6
sgRNA knockout: sgATG7, 10 nM	114 ± 16
sgRNA knockout: sgATG7, 100 nM	93.2 ± 6.9
sgRNA knockout: sgATG7, 1000 nM	82.2 ± 24
sgRNA knockout: sgATG7, 10000 nM	40.5 ± 8.7
sgRNA knockout: sgERN1, 10 nM	83.9 ± 8.4
sgRNA knockout: sgERN1, 100 nM	97 ± 13
sgRNA knockout: sgERN1, 1000 nM	103 ± 27
sgRNA knockout: sgERN1, 10000 nM	39.3 ± 7.8
sgRNA knockout: sgHSF1, 10 nM	91.8 ± 9.1
sgRNA knockout: sgHSF1, 100 nM	102 ± 16
sgRNA knockout: sgHSF1, 1000 nM	104 ± 34
sgRNA knockout: sgHSF1, 10000 nM	41.8 ± 2.8
sgRNA knockout: sgHSF2, 10 nM	100 ± 13
sgRNA knockout: sgHSF2, 100 nM	95 ± 11
sgRNA knockout: sgHSF2, 1000 nM	128 ± 23
sgRNA knockout: sgHSF2, 10000 nM	30.9 ± 10
sgRNA knockout: sgKEAP1, 10 nM	102 ± 38
sgRNA knockout: sgKEAP1, 100 nM	96.3 ± 6.3
sgRNA knockout: sgKEAP1, 1000 nM	94.5 ± 19
sgRNA knockout: sgKEAP1, 10000 nM	33.9 ± 0.3
sgRNA knockout: sgNFE2L2, 10 nM	95.1 ± 24
sgRNA knockout: sgNFE2L2, 100 nM	116 ± 25
sgRNA knockout: sgNFE2L2, 1000 nM	87.1 ± 17
sgRNA knockout: sgNFE2L2, 10000 nM	32.9 ± 2
sgRNA knockout: sgSLC35F2, 10 nM	110 ± 3
sgRNA knockout: sgSLC35F2, 100 nM	97 ± 26
sgRNA knockout: sgSLC35F2, 1000 nM	103 ± 19
sgRNA knockout: sgSLC35F2, 10000 nM	31.7 ± 6.1
sgRNA knockout: sgXBP1, 10 nM	90.5 ± 2.3
sgRNA knockout: sgXBP1, 100 nM	119 ± 2.2
sgRNA knockout: sgXBP1, 1000 nM	95.9 ± 34
sgRNA knockout: sgXBP1, 10000 nM	37.5 ± 9.3
